# Laboratory results taken from PubChem BioAssay (EPA / NIEHS).
# Chains of the proteins cited; added tags and fusions are not shown. Lines headed by an entry give the natural chain unless they say otherwise; changes in a name come on top.
# UniProt P48730: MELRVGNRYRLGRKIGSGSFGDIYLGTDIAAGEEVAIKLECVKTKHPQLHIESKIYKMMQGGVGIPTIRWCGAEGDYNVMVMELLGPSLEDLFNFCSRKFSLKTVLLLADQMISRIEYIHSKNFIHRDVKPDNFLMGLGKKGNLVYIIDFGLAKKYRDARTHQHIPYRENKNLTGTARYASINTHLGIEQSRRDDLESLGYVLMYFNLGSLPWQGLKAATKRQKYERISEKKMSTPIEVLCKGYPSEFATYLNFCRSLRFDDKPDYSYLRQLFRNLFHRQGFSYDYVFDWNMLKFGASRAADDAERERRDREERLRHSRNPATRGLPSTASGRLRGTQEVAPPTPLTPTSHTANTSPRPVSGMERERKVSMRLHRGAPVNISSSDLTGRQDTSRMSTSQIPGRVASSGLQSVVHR
# The inconclusive results got no clear call from the source; some entries with a clear call stand among them for comparison. Potencies of inconclusive entries are doubtful fits and often do not repeat. The source made the active and inactive calls. The calls were made as follows: active = hit-call score of the fitted dose curve at least 0.9, where 1 is the maximum; inconclusive = response in the unintended direction; inactive = score below 0.9.
# Target: human Casein Kinase 1-delta (CK1D), CSNK1D (gene 1453) (UniProt P48730)
# Experiment: NVS_ENZ_hCK1D: NovaScreen (NVS) Enzymatic Assay for human Casein Kinase 1-delta (CK1D) (AID 2283148)
# Procedure, shortened: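 Recombinant human CK1-delta, cell-free; fluorescent substrate with electrophoretic mobility-shift separation of product, read 1 h after dosing. Single 25 uM duplicate screen, then concentration-response up to 50 uM; loss of signal vs DMSO.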
SMILES,outcome,AC50
O=C(O)Cc1cc(I)c(Oc2ccc(O)c(I)c2)c(I)c1,inactive,
CS(=O)(=O)c1ccc([C@@H](CC2CCCC2)C(=O)Nc2cnccn2)cc1Cl,inactive,
c1ccc2n[nH]nc2c1,,active: 25 µM
CC(C)(C)c1csc(-c2cc3cc(OCc4ccccc4CC(=O)O)ccc3o2)n1,,inconclusive: 0.51 µM
Clc1nc(Cl)c(Cl)c(Cl)c1Cl,,inconclusive: 25 µM
C/C=C/c1ccc(OC)cc1,,inconclusive: 0.0774 µM
CCNc1nc(N)nc(Cl)n1,,active: 22.1 µM
COS(C)(=O)=O,,inconclusive: 0.289 µM

# Quoted at random: 2 records from the list
SMILES,outcome,AC50
O=C(O)Cc1cc(I)c(Oc2ccc(O)c(I)c2)c(I)c1,inactive,
CC(C)(C)c1csc(-c2cc3cc(OCc4ccccc4CC(=O)O)ccc3o2)n1,,inconclusive: 0.51 µM
